Data taken from the supplement of paper PMC6411743.
± gives the standard deviation of the averaged measurements. The list shows a part of the results, in another mix than the full data.

Sequences of proteins named here, by UniProt entry; tags and fusion partners are left off. A change or cut given only in a name is not applied to a line headed by its entry.
UniProt Q9NQP4, whole entry: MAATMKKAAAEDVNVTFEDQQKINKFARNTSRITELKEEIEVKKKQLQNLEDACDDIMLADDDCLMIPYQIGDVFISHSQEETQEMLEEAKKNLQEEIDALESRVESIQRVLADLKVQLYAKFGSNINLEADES
UniProt Q9P1Z2: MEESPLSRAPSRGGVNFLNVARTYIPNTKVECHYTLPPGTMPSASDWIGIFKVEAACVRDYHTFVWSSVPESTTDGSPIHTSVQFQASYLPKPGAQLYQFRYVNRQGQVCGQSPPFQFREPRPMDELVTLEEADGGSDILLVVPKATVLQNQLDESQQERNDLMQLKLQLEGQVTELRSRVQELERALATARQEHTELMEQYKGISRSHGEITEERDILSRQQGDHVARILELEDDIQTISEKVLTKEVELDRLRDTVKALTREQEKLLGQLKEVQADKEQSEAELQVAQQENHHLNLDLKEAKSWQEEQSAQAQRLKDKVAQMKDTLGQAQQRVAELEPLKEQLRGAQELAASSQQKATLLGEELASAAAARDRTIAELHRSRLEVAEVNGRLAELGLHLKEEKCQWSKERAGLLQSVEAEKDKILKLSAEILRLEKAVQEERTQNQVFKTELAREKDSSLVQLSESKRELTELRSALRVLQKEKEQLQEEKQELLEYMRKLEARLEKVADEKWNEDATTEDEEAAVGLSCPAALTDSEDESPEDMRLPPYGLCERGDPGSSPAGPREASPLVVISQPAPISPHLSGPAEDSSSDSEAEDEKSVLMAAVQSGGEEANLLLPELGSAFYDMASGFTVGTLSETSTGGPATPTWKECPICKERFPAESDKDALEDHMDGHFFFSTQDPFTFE
UniProt Q9NXR1: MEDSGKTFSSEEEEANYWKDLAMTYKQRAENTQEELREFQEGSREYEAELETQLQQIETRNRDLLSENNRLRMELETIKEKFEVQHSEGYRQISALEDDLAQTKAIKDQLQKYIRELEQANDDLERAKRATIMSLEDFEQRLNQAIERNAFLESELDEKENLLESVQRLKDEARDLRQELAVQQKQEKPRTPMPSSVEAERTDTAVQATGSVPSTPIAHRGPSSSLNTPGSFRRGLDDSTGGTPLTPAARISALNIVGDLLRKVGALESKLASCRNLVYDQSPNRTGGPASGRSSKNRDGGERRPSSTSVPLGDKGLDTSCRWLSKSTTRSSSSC
UniProt Q9NRY5: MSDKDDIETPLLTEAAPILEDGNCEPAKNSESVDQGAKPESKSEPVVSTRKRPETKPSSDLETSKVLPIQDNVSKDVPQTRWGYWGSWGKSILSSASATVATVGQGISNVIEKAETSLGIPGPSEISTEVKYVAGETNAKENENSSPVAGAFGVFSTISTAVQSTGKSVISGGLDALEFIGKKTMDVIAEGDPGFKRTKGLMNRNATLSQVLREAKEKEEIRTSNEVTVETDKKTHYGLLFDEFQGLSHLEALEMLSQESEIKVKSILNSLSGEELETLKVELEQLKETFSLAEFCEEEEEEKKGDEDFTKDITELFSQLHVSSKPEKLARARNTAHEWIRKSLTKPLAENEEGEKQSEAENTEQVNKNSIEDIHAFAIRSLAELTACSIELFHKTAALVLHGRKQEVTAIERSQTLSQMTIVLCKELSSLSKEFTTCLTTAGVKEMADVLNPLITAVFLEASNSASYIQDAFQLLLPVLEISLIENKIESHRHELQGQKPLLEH
UniProt Q9NXN4: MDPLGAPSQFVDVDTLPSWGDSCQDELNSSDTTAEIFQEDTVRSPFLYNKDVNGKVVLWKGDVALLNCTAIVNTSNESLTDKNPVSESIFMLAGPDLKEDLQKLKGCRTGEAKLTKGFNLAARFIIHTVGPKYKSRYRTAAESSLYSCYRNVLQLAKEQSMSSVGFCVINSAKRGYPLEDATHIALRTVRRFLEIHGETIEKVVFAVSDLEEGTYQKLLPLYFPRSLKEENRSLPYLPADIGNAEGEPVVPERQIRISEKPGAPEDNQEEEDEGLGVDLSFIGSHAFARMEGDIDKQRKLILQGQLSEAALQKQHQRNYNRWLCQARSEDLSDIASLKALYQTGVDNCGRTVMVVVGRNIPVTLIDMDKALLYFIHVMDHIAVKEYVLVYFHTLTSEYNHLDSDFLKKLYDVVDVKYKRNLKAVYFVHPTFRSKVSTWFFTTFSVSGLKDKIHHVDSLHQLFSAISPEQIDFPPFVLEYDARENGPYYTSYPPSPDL
UniProt Q9NX40: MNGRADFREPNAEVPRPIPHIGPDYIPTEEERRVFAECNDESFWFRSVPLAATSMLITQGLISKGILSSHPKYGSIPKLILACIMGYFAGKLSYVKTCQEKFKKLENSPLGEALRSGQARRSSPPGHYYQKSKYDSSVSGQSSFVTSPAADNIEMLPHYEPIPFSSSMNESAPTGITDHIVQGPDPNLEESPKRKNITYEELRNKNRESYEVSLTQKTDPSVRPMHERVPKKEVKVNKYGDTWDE
UniProt Q9NX04: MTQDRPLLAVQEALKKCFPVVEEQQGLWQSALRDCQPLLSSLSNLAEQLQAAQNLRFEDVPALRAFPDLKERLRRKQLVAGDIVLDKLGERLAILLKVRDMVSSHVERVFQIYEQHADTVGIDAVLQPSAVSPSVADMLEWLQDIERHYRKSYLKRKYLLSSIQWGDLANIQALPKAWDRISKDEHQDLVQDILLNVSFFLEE
UniProt Q9NZZ3: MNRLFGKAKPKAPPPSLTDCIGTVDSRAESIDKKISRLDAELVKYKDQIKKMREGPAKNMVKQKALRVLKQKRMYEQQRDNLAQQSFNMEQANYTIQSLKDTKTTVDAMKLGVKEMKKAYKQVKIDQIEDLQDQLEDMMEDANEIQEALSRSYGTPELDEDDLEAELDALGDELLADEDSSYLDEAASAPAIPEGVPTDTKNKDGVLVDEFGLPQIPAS
UniProt Q9NWV8, whole entry: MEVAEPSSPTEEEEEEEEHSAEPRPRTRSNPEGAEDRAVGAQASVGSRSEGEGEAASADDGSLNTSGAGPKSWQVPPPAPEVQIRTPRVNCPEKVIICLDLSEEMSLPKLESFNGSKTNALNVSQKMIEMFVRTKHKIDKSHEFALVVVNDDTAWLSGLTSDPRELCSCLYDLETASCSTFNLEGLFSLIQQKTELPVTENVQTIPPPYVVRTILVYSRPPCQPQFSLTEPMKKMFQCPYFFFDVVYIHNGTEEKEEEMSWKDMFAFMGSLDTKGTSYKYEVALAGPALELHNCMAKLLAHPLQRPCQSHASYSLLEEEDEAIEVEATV
UniProt Q9NQ48: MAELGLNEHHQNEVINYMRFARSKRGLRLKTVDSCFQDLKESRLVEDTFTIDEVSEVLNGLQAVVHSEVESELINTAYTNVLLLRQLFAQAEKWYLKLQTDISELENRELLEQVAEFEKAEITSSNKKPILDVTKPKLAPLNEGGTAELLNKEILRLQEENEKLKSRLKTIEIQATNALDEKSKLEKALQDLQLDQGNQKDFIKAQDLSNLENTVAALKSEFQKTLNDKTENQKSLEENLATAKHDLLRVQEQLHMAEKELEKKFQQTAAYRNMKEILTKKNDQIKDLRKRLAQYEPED
UniProt Q9NVM6: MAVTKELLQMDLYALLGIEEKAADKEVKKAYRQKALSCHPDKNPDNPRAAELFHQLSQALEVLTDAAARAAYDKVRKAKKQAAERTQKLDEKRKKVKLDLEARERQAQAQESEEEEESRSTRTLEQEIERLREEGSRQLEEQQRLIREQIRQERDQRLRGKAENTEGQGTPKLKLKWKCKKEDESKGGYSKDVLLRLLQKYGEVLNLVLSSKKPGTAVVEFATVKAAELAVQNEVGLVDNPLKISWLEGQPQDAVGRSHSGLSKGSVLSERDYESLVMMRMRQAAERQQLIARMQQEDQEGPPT
UniProt Q9NVM4: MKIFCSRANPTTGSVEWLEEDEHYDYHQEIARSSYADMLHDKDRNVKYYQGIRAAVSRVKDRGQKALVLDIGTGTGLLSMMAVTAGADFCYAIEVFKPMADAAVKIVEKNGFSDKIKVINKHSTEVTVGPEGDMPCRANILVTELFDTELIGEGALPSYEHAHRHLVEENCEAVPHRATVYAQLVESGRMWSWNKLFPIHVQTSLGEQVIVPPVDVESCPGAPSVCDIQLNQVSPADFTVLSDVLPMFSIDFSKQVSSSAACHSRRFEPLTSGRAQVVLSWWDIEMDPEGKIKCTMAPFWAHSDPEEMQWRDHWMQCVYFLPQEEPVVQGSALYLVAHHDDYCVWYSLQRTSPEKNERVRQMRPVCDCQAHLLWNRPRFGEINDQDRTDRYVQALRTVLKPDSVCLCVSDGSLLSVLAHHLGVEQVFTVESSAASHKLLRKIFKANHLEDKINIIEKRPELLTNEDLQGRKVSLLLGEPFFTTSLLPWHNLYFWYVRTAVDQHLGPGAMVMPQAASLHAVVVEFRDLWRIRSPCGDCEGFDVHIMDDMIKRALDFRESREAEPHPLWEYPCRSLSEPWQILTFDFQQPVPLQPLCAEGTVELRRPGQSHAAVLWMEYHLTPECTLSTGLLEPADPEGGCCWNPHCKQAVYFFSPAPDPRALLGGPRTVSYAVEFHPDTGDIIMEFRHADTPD
UniProt Q9NX01: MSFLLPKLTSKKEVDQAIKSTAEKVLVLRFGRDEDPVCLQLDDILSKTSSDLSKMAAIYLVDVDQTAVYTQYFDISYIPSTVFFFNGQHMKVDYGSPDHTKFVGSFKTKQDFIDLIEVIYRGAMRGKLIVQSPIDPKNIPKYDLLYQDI
UniProt Q9NWR8: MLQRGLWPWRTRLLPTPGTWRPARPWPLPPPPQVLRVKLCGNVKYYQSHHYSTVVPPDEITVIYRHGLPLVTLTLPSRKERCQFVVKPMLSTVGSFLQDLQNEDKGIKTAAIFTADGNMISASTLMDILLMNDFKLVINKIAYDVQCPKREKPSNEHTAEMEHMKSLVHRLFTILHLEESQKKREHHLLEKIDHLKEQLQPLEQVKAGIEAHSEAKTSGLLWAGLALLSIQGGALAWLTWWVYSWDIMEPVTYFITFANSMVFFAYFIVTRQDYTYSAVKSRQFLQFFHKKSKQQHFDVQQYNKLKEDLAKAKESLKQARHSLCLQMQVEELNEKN
UniProt Q9NPF5, whole entry: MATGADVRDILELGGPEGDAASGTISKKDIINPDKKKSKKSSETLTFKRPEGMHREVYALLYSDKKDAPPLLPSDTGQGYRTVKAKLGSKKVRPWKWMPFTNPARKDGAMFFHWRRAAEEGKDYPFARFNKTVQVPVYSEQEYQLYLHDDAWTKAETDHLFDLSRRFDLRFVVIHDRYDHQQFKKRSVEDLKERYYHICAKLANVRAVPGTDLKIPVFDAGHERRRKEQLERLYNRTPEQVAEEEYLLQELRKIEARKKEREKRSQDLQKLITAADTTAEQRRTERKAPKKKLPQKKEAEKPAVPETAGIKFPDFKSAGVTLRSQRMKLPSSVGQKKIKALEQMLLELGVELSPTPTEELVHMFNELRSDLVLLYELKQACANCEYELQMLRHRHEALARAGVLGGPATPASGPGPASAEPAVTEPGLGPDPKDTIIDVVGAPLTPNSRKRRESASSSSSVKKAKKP
UniProt Q9NWY4: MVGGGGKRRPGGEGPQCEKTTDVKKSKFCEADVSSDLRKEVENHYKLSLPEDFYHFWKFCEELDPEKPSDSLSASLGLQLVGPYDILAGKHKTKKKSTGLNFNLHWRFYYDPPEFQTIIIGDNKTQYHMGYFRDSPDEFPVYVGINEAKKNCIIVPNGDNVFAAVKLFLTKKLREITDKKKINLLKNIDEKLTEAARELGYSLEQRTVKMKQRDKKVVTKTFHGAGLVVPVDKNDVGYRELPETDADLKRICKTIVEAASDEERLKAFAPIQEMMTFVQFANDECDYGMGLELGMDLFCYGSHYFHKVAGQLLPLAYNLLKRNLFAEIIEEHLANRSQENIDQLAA
UniProt Q9P0K8: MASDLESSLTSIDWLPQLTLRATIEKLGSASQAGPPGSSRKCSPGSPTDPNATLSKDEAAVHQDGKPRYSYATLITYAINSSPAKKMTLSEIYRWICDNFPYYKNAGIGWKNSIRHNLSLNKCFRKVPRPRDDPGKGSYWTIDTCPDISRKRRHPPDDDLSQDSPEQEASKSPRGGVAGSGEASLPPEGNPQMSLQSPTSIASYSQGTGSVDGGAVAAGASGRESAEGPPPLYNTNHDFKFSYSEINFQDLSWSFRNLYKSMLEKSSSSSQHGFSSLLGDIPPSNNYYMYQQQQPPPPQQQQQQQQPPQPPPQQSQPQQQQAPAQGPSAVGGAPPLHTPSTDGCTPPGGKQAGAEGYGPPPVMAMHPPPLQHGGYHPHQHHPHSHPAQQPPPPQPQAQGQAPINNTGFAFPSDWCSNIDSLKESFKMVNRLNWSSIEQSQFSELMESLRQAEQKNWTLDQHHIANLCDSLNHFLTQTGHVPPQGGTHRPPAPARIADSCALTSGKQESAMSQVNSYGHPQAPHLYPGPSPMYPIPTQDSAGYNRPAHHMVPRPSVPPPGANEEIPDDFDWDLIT
UniProt Q9NVP2, whole entry: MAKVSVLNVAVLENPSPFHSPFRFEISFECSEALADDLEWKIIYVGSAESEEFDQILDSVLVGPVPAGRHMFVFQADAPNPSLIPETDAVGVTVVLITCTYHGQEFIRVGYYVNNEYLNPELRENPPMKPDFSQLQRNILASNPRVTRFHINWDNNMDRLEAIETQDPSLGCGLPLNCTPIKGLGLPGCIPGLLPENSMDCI

Compound: Nc1ncnc2c1ncn2[C@@H]1O[C@H](COP(=O)(O)OP(=O)(O)OP(=O)(O)O)[C@@H](O)[C@H]1O [adenosine triphosphate]
Assay: NP40-soluble protein abundance relative to vehicle (solubility fold change) (ratio); higher = more soluble protein in presence of ATP
In short: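 Each value is a fold change relative to the detergent-processed vehicle, calculated per replicate from vsn-normalised intensities. Jurkat crude lysate received eight concentrations (0.1 to 10 mM) for 10 min at room temperature and 3 min at 37 °C, then was solubilised in 0.8% NP40 with benzonase (60 min, 4 °C). The ultracentrifuged supernatant was TMT-labelled and run by LC-MS/MS in three independent experiments.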

| Target | NP40-soluble protein abundance (concentration: 1mM) | NP40-soluble protein abundance (concentration: 2mM) | NP40-soluble protein abundance (concentration: 4mM) | NP40-soluble protein abundance (concentration: 6mM) | NP40-soluble protein abundance (concentration: 8mM) | NP40-soluble protein abundance (concentration: 10mM) |
| --- | --- | --- | --- | --- | --- | --- |
| PFDN4 (UniProt Q9NQP4) | 0.864 ± 0.1 | 0.936 ± 0.16 | 0.908 ± 0.088 | 1.04 ± 0.18 | 0.835 ± 0.048 | 0.86 ± 0.14 |
| UniProt Q9P1Z2 and related entries | 0.943 ± 0.075 | 0.975 ± 0.033 | 0.959 ± 0.046 | 0.98 ± 0.034 | 0.938 ± 0.051 | 0.935 ± 0.039 |
| UniProt Q9NXR1 and related entries | 0.958 ± 0.11 | 0.973 ± 0.061 | 0.997 ± 0.034 | 0.983 ± 0.081 | 0.915 ± 0.05 | 0.927 ± 0.077 |
| FAM114A2 (UniProt Q9NRY5) | 0.909 ± 0.072 | 0.943 ± 0.022 | 0.933 ± 0.026 | 0.97616 ± 0.00056 | 0.915 ± 0.026 | 0.925 ± 0.032 |
| UniProt Q9NXN4 and related entries | 0.96 ± 0.043 | 0.96 ± 0.049 | 0.975 ± 0.077 | 0.942 ± 0.11 | 0.938 ± 0.07 | 0.96 ± 0.063 |
| UniProt Q9NY93 and related entries | 0.995 ± 0.046 | 1.05 ± 0.044 | 1.08 ± 0.052 | 1.06 ± 0.042 | 1.03 ± 0.036 | 1.11 ± 0.11 |
| OCIAD1 (UniProt Q9NX40) | 0.967 ± 0.013 | 0.977 ± 0.034 | 0.963 ± 0.03 | 0.941 ± 0.032 | 0.965 ± 0.047 | 0.933 ± 0.045 |
| UniProt Q9NX04 and related entries | 1.23 ± 0.11 | 1.31 ± 0.066 | 1.27 ± 0.21 | 1.29 ± 0.19 | 1.28 ± 0.22 | 1.13 ± 0.1 |
| UniProt Q9NVK5-2 | 0.979 ± 0.088 | 0.926 ± 0.062 | 0.944 ± 0.069 | 0.971 ± 0.13 | 0.957 ± 0.063 | 0.926 ± 0.082 |
| CHMP5 (UniProt Q9NZZ3) | 0.945 ± 0.097 | 0.917 ± 0.057 | 0.912 ± 0.1 | 0.94 ± 0.068 | 0.936 ± 0.035 | 0.819 ± 0.12 |
| UniProt Q9NWV8 | 0.945 ± 0.079 | 0.962 ± 0.039 | 0.925 ± 0.021 | 0.98 ± 0.042 | 0.939 ± 0.028 | 0.946 ± 0.0095 |
| UniProt Q9NPA3 | 1.08 ± 0.072 | 1 ± 0.06 | 1.02 ± 0.057 | 0.991 ± 0.1 | 0.992 ± 0.063 | 0.947 ± 0.091 |
| FANCI (UniProt Q9NVI1) | 0.993 ± 0.098 | 0.977 ± 0.067 | 0.958 ± 0.051 | 0.939 ± 0.078 | 0.969 ± 0.037 | 0.979 ± 0.036 |
| LZTFL1 (UniProt Q9NQ48) | 0.994 ± 0.099 | 0.935 ± 0.022 | 0.966 ± 0.018 | 0.984 ± 0.1 | 1.03 ± 0.046 | 0.84 ± 0.13 |
| DNAJC17 (UniProt Q9NVM6) | 0.957 ± 0.048 | 0.951 ± 0.015 | 1.02 ± 0.064 | 1.04 ± 0.026 | 1.07 ± 0.067 | 0.988 ± 0.071 |
| SLC17A5 (UniProt Q9NRA2) | 0.844 ± 0.017 | 1 ± 0.11 | 0.823 ± 0.012 | 0.845 ± 0.06 | 0.8772 ± 0.0026 | 0.888 ± 0.036 |
| UniProt Q9NVM4 and related entries | 1.02 ± 0.058 | 1.03 ± 0.037 | 1.05 ± 0.043 | 0.973 ± 0.099 | 1.03 ± 0.062 | 1 ± 0.054 |
| TXNL4B (UniProt Q9NX01) | 0.983 ± 0.025 | 0.967 ± 0.07 | 0.994 ± 0.068 | 0.946 ± 0.038 | 0.981 ± 0.041 | 0.954 ± 0.028 |
| KIF15 (UniProt Q9NS87) | 0.9859 ± 0.0037 | 0.989 ± 0.032 | 0.975 ± 0.025 | 1 ± 0.039 | 0.961 ± 0.038 | 0.966 ± 0.055 |
| UCKL1 (UniProt Q9NWZ5) | 0.99 ± 0.014 | 0.962 ± 0.02 | 0.971 ± 0.017 | 0.899 ± 0.019 | 0.938 ± 0.025 | 0.95 ± 0.071 |
| UniProt Q9NWR8 | 1.08 ± 0.017 | 1.05 ± 0.016 | 1.04 ± 0.041 | 0.9713 ± 0.0057 | 1.06 ± 0.035 | 1.04 ± 0.094 |
| DMAP1 (UniProt Q9NPF5) | 0.968 ± 0.028 | 0.957 ± 0.017 | 0.957 ± 0.037 | 0.997 ± 0.11 | 1.04 ± 0.042 | 1.06 ± 0.024 |
| UniProt Q9NWY4 | 1 ± 0.071 | 0.992 ± 0.035 | 0.958 ± 0.067 | 0.94 ± 0.1 | 0.971 ± 0.082 | 0.971 ± 0.054 |
| UniProt Q9P0K8 and related entries | 0.881 ± 0.04 | 0.899 ± 0.097 | 0.913 ± 0.051 | 0.911 ± 0.12 | 0.856 ± 0.098 | 0.842 ± 0.088 |
| CTNNBIP1 (UniProt Q9NSA3) | 0.881 ± 0.093 | 0.932 ± 0.018 | 0.846 ± 0.089 | 0.989 ± 0.17 | 0.865 ± 0.03 | 0.879 ± 0.085 |
| UniProt Q9NVQ4 and related entries | 1.1 ± 0.063 | 1.15 ± 0.24 | 1.11 ± 0.1 | 0.969 ± 0.065 | 1.04 ± 0.14 | 1.03 ± 0.031 |
| ASF1B (UniProt Q9NVP2) | 1.04 ± 0.076 | 1.03 ± 0.11 | 1 ± 0.043 | 0.995 ± 0.1 | 1.04 ± 0.048 | 0.996 ± 0.089 |
| CCDC88C (UniProt Q9P219) | 0.949 ± 0.026 | 0.955 ± 0.02 | 0.951 ± 0.022 | 0.977 ± 0.022 | 0.935 ± 0.012 | 0.923 ± 0.014 |
| UBP1 (UniProt Q9NZI7) | 1.04 ± 0.028 | 1.03 ± 0.021 | 1.045 ± 0.002 | 1.01 ± 0.043 | 1.01 ± 0.029 | 1.05 ± 0.067 |
| UniProt Q9P0J1 and related entries | 0.969 ± 0.029 | 0.989 ± 0.058 | 0.949 ± 0.025 | 0.941 ± 0.077 | 0.953 ± 0.059 | 0.991 ± 0.059 |

Copied from the entries so far for reference:

| Target | NP40-soluble protein abundance (concentration: 1mM) | NP40-soluble protein abundance (concentration: 2mM) | NP40-soluble protein abundance (concentration: 4mM) | NP40-soluble protein abundance (concentration: 6mM) | NP40-soluble protein abundance (concentration: 8mM) | NP40-soluble protein abundance (concentration: 10mM) |
| --- | --- | --- | --- | --- | --- | --- |
| TXNL4B (UniProt Q9NX01) | 0.983 ± 0.025 | 0.967 ± 0.07 | 0.994 ± 0.068 | 0.946 ± 0.038 | 0.981 ± 0.041 | 0.954 ± 0.028 |
| KIF15 (UniProt Q9NS87) | 0.9859 ± 0.0037 | 0.989 ± 0.032 | 0.975 ± 0.025 | 1 ± 0.039 | 0.961 ± 0.038 | 0.966 ± 0.055 |
| UCKL1 (UniProt Q9NWZ5) | 0.99 ± 0.014 | 0.962 ± 0.02 | 0.971 ± 0.017 | 0.899 ± 0.019 | 0.938 ± 0.025 | 0.95 ± 0.071 |
| UniProt Q9NWR8 | 1.08 ± 0.017 | 1.05 ± 0.016 | 1.04 ± 0.041 | 0.9713 ± 0.0057 | 1.06 ± 0.035 | 1.04 ± 0.094 |
| DMAP1 (UniProt Q9NPF5) | 0.968 ± 0.028 | 0.957 ± 0.017 | 0.957 ± 0.037 | 0.997 ± 0.11 | 1.04 ± 0.042 | 1.06 ± 0.024 |
| UniProt Q9NWY4 | 1 ± 0.071 | 0.992 ± 0.035 | 0.958 ± 0.067 | 0.94 ± 0.1 | 0.971 ± 0.082 | 0.971 ± 0.054 |
| UniProt Q9P0K8 and related entries | 0.881 ± 0.04 | 0.899 ± 0.097 | 0.913 ± 0.051 | 0.911 ± 0.12 | 0.856 ± 0.098 | 0.842 ± 0.088 |
| CTNNBIP1 (UniProt Q9NSA3) | 0.881 ± 0.093 | 0.932 ± 0.018 | 0.846 ± 0.089 | 0.989 ± 0.17 | 0.865 ± 0.03 | 0.879 ± 0.085 |
